Data: US20050113295A1 (priority 2003, published 2005)

Assay: general procedure: Fmoc solid-phase peptide synthesis; Wang resin; DIC/HOBt/DMAP; HATU/DIEA for the last coupling
Details: whole synthesis, LC/MS (Finnigan AQA Thermo Quest; Alliance Waters 2695), scale of the general procedure 1 g resin, 1.20 mmol

Substance | purity (crude or final not stated) (TFA) [%] | purity (crude or final not stated) (6 TFA) [%]
H-Cpa-Gly-Gly-Phe-Leu | 99.4 | –
H-Cpa-Gly-Gly-Phe-Leu-Arg-Arg-Ile-Arg-Pro-Lys | – | 95.0
